Results are given in words; binding and its absence hold for the method and conditions named. Binding seen in cells or lysates may run through a third protein. Some results given as binding are weak or reduced against the parent protein; the word gives no strength. Where a sequence is shown, tags or fusion partners need not be part of it.
Target: T1, Flag-tagged human PRDX4 (human) (UniProt Q13162)
T1 sequence: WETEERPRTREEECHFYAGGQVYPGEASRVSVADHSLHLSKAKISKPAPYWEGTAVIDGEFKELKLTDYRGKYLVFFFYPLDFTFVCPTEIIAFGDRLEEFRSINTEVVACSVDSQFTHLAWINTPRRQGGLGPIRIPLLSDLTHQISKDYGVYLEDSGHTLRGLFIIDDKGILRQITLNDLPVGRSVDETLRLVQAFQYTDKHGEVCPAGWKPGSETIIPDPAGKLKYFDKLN
Assay: co-IP

Amino acid sequences for entries named in this document (tags omitted). Residues count along the entry.
UniProt P11021, residues 19-654: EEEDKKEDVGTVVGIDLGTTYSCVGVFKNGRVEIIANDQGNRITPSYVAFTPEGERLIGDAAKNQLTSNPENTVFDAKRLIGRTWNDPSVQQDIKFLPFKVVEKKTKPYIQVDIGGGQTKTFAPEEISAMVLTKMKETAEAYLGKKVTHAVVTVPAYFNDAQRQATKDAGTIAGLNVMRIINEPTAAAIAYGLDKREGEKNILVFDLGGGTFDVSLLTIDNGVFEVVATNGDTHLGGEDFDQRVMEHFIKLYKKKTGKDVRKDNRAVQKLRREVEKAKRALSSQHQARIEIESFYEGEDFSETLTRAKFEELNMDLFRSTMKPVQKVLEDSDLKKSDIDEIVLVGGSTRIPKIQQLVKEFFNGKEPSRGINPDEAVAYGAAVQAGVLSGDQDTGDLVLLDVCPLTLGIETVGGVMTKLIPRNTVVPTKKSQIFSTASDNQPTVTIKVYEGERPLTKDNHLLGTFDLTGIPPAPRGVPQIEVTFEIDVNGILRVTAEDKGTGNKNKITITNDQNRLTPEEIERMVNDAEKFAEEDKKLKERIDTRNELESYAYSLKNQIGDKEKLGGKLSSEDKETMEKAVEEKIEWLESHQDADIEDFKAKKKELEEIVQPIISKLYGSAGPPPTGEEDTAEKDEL

- binding: binds
Substance: BiP, HEK293A cells (from UniProt P11021 19-654)

From article doi:10.1101/699132 (bioRxiv, 2020)
